Laboratory results taken from PubChem BioAssay AID662 (National Center for Advancing Translational Sciences (NCATS), 2007).
Some of the results follow. These are further read-outs of the screen, such as a control signal, another cell line or another target. No call is given for them. Compounds called inactive in the main read-out are mostly missing here. Potencies come from curve fits of mixed quality, noted in brackets.

Test: Cell signaling CRE-BLA (Fsk stim)
Settings: CHO CRE-bla reporter (cAMP response element driving beta-lactamase), forskolin EC10, beta-lactamase ratio; measured here: 460 nm blue channel
How it was run: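 Using CellSensor CRE-bla CHO cells in Opti-MEM with 0.5% dialyzed FBS, compounds were titrated with EC10 NKH 477 for 3 h at 37 °C. CCF4 ratio (460/530 nm) gave %Activity; AC50 derived.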

| Compound | AC50 |
| --- | --- |
| CCCN1CCCc2cc(CN)ccc21 | 12.6 µM [rising, single point] |
| Cn1c(=O)oc2cc(S(=O)(=O)N3CCN(Cc4ccc5c(c4)OCO5)CC3)ccc21 | 12.6 µM [falling, single point] |
| COC(=O)C(C)Sc1ccc2nnc(-c3cccc(F)c3)n2n1 (centres undefined) | 10 µM [rising, partial curve] |
| CCc1c(C)c2ccc(O)c(CN(C)C)c2oc1=O | 12.6 µM [rising, partial curve] |
| C[N+](C)(C)[C@@H](C1=CCCC1=O)c1ccccc1 | 0.794 µM [rising, partial curve] |
| COc1cc(C2=NOC(C(=O)N3CCN(c4ccc(F)cc4)CC3)C2)cc(OC)c1OC (centres undefined) | 10 µM [rising, single point] |
| COc1cccc(N2CCN(C3OC(=O)c4ccccc43)CC2)c1 (centres undefined) | 2.51 µM [falling, full curve, poor fit] |
| O=c1c(-c2cccs2)nc2cncnc2n1C1CC1 | 5.01 µM [rising, partial curve] |
| Cn1c(COc2ccc(Cl)cc2)nnc1SCc1ncc(-c2ccccc2)o1 | 5.01 µM [falling, single point] |
| COc1ccc2nc(NC(=O)C(NS(=O)(=O)c3cccs3)C(C)C)sc2c1 (centres undefined) | 25.1 µM [rising, single point] |
| CCC/C=C(\CCC)C(NC(=O)c1ccc(C(F)(F)F)cc1)c1ccccc1 (centres undefined) | 3.98 µM [rising, partial curve] |
| Cc1ccc(C)c(NS(=O)(=O)c2c(C)ccc3nsnc23)c1 | 5.01 µM [falling, single point] |
| O=C(O)c1ccc(C(=O)O)c(C(=O)Nc2ccc3c(c2)Cc2ccccc2-3)c1 | 0.631 µM [falling, partial curve] |
| Fc1cccc(NCc2ccoc2)c1 | 0.794 µM [rising, partial curve] |
| Cc1cccc2cc3c(nc12)SC(=NCC1CCCO1)N(Cc1ccco1)C3 (centres undefined) | 3.16 µM [falling, full curve] |
| Nc1c(S(=O)(=O)c2cccs2)c2nc3ccccc3nc2n1/N=C/c1cccc(O)c1 | 2.51 µM [rising, partial curve] |
| CN1CCN(c2ncc3nc(-c4cccs4)c(=O)n(CCC#N)c3n2)CC1 | 10 µM [rising, partial curve] |
| Cc1cc(C)c2c(=O)n(CC(=O)N3CCC(Cc4ccccc4)CC3)sc2n1 | 25.1 µM [falling, single point] |
| COC(=O)c1cccc(C(=O)Nc2ccc(C)cc2Br)n1 | 0.0251 µM [falling, full curve, poor fit] |

Sorted by SMILES length (low to high): 5 of the compounds above

| Compound | AC50 |
| --- | --- |
| Fc1cccc(NCc2ccoc2)c1 | 0.794 µM [rising, partial curve] |
| C[N+](C)(C)[C@@H](C1=CCCC1=O)c1ccccc1 | 0.794 µM [rising, partial curve] |
| COC(=O)C(C)Sc1ccc2nnc(-c3cccc(F)c3)n2n1 (centres undefined) | 10 µM [rising, partial curve] |
| Cc1ccc(C)c(NS(=O)(=O)c2c(C)ccc3nsnc23)c1 | 5.01 µM [falling, single point] |
| Cn1c(=O)oc2cc(S(=O)(=O)N3CCN(Cc4ccc5c(c4)OCO5)CC3)ccc21 | 12.6 µM [falling, single point] |
